Over roughly 33,000 sequences, “E-score (-0.5 to 0.5)” has its median near -0.0034; the highest 2% begin near 0.25. The list shows a part of the results.
Target: T1, Yap3 (UniProt P38749)
T1 sequence: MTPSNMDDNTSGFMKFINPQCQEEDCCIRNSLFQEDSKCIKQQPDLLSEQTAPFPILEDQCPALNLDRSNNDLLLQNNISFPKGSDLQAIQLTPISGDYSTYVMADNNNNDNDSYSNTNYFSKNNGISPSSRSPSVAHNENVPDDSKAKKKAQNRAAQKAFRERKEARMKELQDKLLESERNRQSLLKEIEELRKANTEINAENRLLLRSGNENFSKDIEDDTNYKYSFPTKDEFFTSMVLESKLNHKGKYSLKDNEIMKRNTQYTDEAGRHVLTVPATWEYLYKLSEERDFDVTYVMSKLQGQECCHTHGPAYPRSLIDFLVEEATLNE
Assay: PBM E-score (8-mer binding enrichment) (E-score (-0.5 to 0.5)); higher = stronger / more preferred TF binding
Settings: protein concentration: 100 nM; construct: GST-full length
How it was run: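 Universal all-10-mer Agilent arrays, double-stranded by primer extension on fresh or once-stripped slides, were probed with about 100-200 nM GST-tagged yeast transcription factors made by PURExpress. Fluorescent anti-GST detected bound protein, and masliner normalised the scans. E-scores from the Universal PBM Analysis Suite were given to each ungapped eight-base word pooled with its reverse complement.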

| Sequence | PBM E-score |
| --- | --- |
| ACAAGCAA | 0.131 |
| GGATTTAA | 0.16 |
| ACCGGAAA | 0.0324 |
| CTGTGATC | 0.046 |
| TGGCGGAA | -0.231 |
| TCCCCCAA | -0.235 |
| GCCCATAC | -0.0143 |
| AAATCTAT | 0.114 |
| CCGACCAG | -0.0682 |
| TGCTGCAA | 0.176 |
| CTACTCGC | 0.0558 |
| ATAGGTGA | 0.0245 |
| GATTATAC | 0.153 |
| AAGCCAGG | -0.143 |
| ATCCCCGC | -0.0433 |
| CATGACTC | -0.0941 |
| CTGGTGCA | -0.146 |
| CAGAGCAA | -0.0103 |
| CCGGAACC | -0.236 |
| ATAAGACC | 0.0584 |
| CAGCCAGC | -0.157 |
| CGCCCTAA | -0.135 |
| ATAATCTA | 0.229 |
| GGCGTCCC | -0.221 |
| CTGTCCCC | -0.126 |

| Sequence | PBM E-score |
| --- | --- |
| GACACCAA | 0.1 |
| AACCTTGA | 0.124 |
| CGCCGGAA | -0.112 |
| ACCGGCCT | -0.185 |
| CAGAAGTC | -0.0217 |
| TATAGCAA | 0.0906 |
| GACTGTCA | -0.14 |
| CAAGGGAA | -0.0707 |
| CTTTAATC | 0.152 |
| CATACGTC | 0.0447 |
| AGTGAACC | 0.0895 |
| CACGAAAG | 0.0991 |
| ACCGCGCC | -0.0196 |
| GTCTTAAA | -0.035 |
| ATTGCCGG | -0.0327 |
| CAGCGCAC | -0.228 |
| AGGCTCGG | -0.151 |
| TATTGGAA | 0.00926 |
| ACTTTACA | 0.052 |
| CGCTCTAC | 0.117 |
| CGGATAAA | 0.208 |
| CCCGACTA | -0.102 |
| GCAGGGGC | -0.239 |
| AGAAACCG | 0.00024 |
| GTCTGATA | -0.0676 |

| Sequence | PBM E-score |
| --- | --- |
| CTCGACGA | -0.00087 |
| CCTGCTCG | -0.176 |
| GCCAATCC | -0.0933 |
| CTCAGGGA | -0.306 |
| GATCGCTA | 0.0442 |
| GCACTGGA | -0.128 |
| AAAGTAGA | 0.0361 |
| ATGCGGCA | -0.0382 |
| ATAATCAA | 0.139 |
| CCATCCGA | 0.00547 |
| ATTTGACA | 0.141 |
| AAACGCAT | -0.0739 |
| TATGATAA | 0.228 |
| TCGGGAAA | 0.0336 |
| GTCTAATA | -0.0245 |
| CTAAGGGC | -0.105 |
| CGGCGGAG | -0.188 |
| GCAATTTA | 0.139 |
| AGAGTGCC | -0.123 |
| GTTTCCAA | 0.0773 |
| GGGTCAAA | -0.0112 |
| AGTCCCTA | -0.219 |
| ATAGGATA | 0.073 |
| ATGCGCAG | -0.191 |
| AACTTACC | 0.0604 |

For convenience, part of the list above.

| Sequence | PBM E-score |
| --- | --- |
| AGTCCCTA | -0.219 |
| ATAGGATA | 0.073 |

The listing continues:

| Sequence | PBM E-score |
| --- | --- |
| GACTAAAA | 0.0994 |
| ACGTATAG | 0.0089 |
| CTAACAAC | 0.173 |
| AGTACTTG | 0.0831 |
| CGATCAGA | -0.165 |
| CGAATATA | 0.148 |
| ACCTCAAT | 0.0286 |
| AAGTTTCG | 0.0152 |
| AAGTGATA | 0.127 |
| TAATTGGA | 0.102 |
| CGACCGCC | -0.115 |
| TAAAATCA | 0.142 |
| CACGGAGA | -0.0952 |
| AACATGTT | 0.0459 |
| CTCCAGGA | -0.133 |
| GCCGATAA | -0.0129 |
| CGGGCACA | -0.102 |
| GGAGCAAA | 0.016 |
| CGGGGCGC | -0.263 |
| ACGGCGGG | -0.059 |
| ATGTAATG | 0.151 |
| AACAGGCC | -0.258 |
| CCAAACCC | -0.00817 |
| CAAGCCTC | -0.115 |
| TTCAGAAA | -0.104 |

Part of the list above in a different format:
Sequence	PBM E-score
AAGTTTCG	0.0152
AAGTGATA	0.127

Next part

| Sequence | PBM E-score |
| --- | --- |
| AAAAGCCC | -0.145 |
| AGTGAGGA | -0.0477 |
| AAAGCTTG | -0.0115 |
| GGGTTCTA | -0.166 |
| CCTTACCC | -0.0277 |
| GCGCAGGA | -0.226 |
| CTTCTATA | 0.0204 |
| CATACGAG | -0.12 |
| AATACCCT | -0.0814 |
| AGTCAATA | 0.0842 |
| GCTTTGCC | -0.238 |
| AGCGGCGA | 0.0107 |
| CCGGTATA | -0.0704 |
| ACGGATCA | 0.0642 |
| AAATTCTA | 0.0402 |
| GCTTCCAA | -0.0913 |
| CCCGCACA | -0.144 |
| AAGGTTGT | 0.0702 |
| AACCTGGG | -0.18 |
| GCAAAGTA | 0.135 |
| TCCCCACA | -0.244 |
| TTAACTAA | 0.223 |
| AAGACGGT | -0.0896 |
| CCGGTGGC | -0.251 |
| ACCTTATC | 0.0868 |

| Sequence | PBM E-score |
| --- | --- |
| AGCCTCAA | -0.105 |
| GCCTTCTA | -0.107 |
| ATGTACTC | -0.0174 |
| ACCCAATG | -0.11 |
| ACGGCATC | 0.0133 |
| GTTTTTGA | 0.106 |
| CCCACCCG | 0.0644 |
| AACTTCGT | -0.0392 |
| GTTGTGCA | -0.05 |
| TCAGCTCA | -0.022 |
| CTCCGGTA | -0.0869 |
| AAAGTCTG | 0.0218 |
| CACTGACA | 0.0953 |
| CTGTTCAC | 0.127 |
| CATCAATG | -0.00268 |
| GTTAGCGA | 0.202 |
| AAGGAATC | -0.035 |
| ACACCTGA | 0.139 |
| ACAGGCAG | 0.068 |
| ACACGGCA | -0.073 |
| CTCCGCTC | -0.0384 |
| ATTACCCG | -0.0587 |
| ATGCTTCC | -0.0126 |
| ACCAAAAA | 0.277 |
| AACCAAAC | -0.128 |

| Sequence | PBM E-score |
| --- | --- |
| AGCACACC | -0.14 |
| ATTTAGGC | 0.115 |
| CAGATCTC | -0.111 |
| AGGCTCCC | -0.3 |
| ATCTAGGG | 0.0785 |
| TCCAACCA | 0.0516 |
| ATCGTGCC | 0.00144 |
| GACGTCTC | -0.122 |
| GAGTGAAA | 0.0428 |
| ATCGCTTC | -0.0152 |
| CTTAAGGC | -0.0946 |
| GCAAACCA | 0.0279 |
| CGAGCACG | -0.102 |
| AGCGAGAT | 0.159 |
| GGTTAAAC | 0.195 |
| CGTAGTTC | -0.281 |
| ATTTGGGC | -0.0573 |
| GCCGAGGC | -0.0395 |
| CTGGAGCC | -0.21 |
| AATGGGGT | 0.0578 |
| ATCCTAGG | -0.134 |
| CCTACAGA | 0.034 |
